The source of these data is patent publication US20100196919A1, “PEPTIDES, ANTIBODIES AND FRAGMENTS THEREOF FOR THE TREATMENT AND DIAGNOSTIC OF CELIAC DISEASE” (UNIVERSITÀ DEGLI STUDI DI VERONA, priority 2007, published 2010).

Series [1] has as its system serum IgA. Kind of series: ELISA for serum IgA antibodies against the synthetic peptides. Format: binding, human. To be noted: 60 patients' sera (45 out of 60). (In general: ELISA stands for enzyme-linked immunosorbent assay.)
Series [2] relates to serum IgG antibodies. The experiment in a line: ELISA for serum IgG antibodies against the synthetic peptides. Format: binding, human. Conditions: 60 patients with CD.

Regarding VIQVGGSNVLDI [VP-7 peptide], the “patients' sera with IgA antibodies against the peptide” value in series [1] worked out at 75%. In addition, the “frequency of IgG antibodies against the peptide” value in series [2] came out at 91%.
